# Data reported in the supplement of paper PMC8728848.
# The other results are listed elsewhere or left out.
# B1: Endo180d1-D4 (Homo sapiens), Q9UBG0 (protein)
# chain: MGPGRPAPAPWPRHLLRCVLLLGCLHLGRPGAPGDAALPEPNVFLIFSHGLQGCLEAQGGQVRVTPACNTSLPAQRWKWVSRNRLFNLGTMQCLGTGWPGTNTTASLGMYECDREALNLRWHCRTLGDQLSLLLGARTSNISKPGTLERGDQTRSGQWRIYGSEEDLCALPYHEVYTIQGNSHGKPCTIPFKYDNQWFHGCTSTGREDGHLWCATTQDYGKDERWGFCPIKSNDCETFWDKDQLTDSCYQFNFQSTLSWREAWASCEQQGADLLSITEIHEQTYINGLLTGYSSTLWIGLNDLDTSGGWQWSDNSPLKYLNWESDQPDNPSEENCGVIRTESSGGWQNRDCSIALPYVCKKKPNATAEPTPPDRWANVKVECEPSWQPFQGHCYRLQAEKRSWQESKKACLRGGGDLVSIHSMAELEFITKQIKQEVEELWIGLNDLKLQMNFEWSDGSLVSFTHWHPFEPNNFRDSLEDCVTIWGPEGRWNDSPCNQSLPSICKKAGQLSQGAAEEDHGCRKGWTWHSPSCYWLGEDQVTYSEARRLCTDHGSQLVTITNRFEQAFVSSLIYNWEGEYFWTALQDLNSTGSFFWLSGDEVMYTHWNRDQPGYSRGGCVALATGSAMGLWEVKNCTSFRARYICRQSLGTPVTPELPGPDPTPSLTGSCPQGWASDTKLRYCYKVFSSERLQDKKSWVQAQGACQELGAQLLSLASYEEEHFVANMLNKIFGESEPEIHEQHWFWIGLNRRDPRGGQSWRWSDGVGFSYHNFDRSRHDDDDIRGCAVLDLASLQWVAMQCDTQLDWICKIPRGTDVREPDDSPQGRREWLRFQEAEYKFFEHHSTWAQAQRICTWFQAELTSVHSQAELDFLSHNLQKFSRAQEQHWWIGLHTSESDGRFRWTDGSIINFISWAPGKPRPVGKDKKCVYMTASREDWGDQRCLTALPYICKRSNVTKETQPPDLPTTALGGCPSDWIQFLNKCFQVQGQEPQSRVKWSEAQFSCEQQEAQLVTITNPLEQAFITASLPNVTFDLWIGLHASQRDFQWVEQEPLMYANWAPGEPSGPSPAPSGNKPTSCAVVLHSPSAHFTGRWDDRSCTEETHGFICQKGTDPSLSPSPAALPPAPGTELSYLNGTFRLLQKPLRWHDALLLCESHNASLAYVPDPYTQAFLTQAARGLRTPLWIGLAGEEGSRRYSWVSEEPLNYVGWQDGEPQQPGGCTYVDVDGAWRTTSCDTKLQGAVCGVSSGPPPPRRISYHGSCPQGLADSAWIPFREHCYSFHMELLLGHKEARQRCQRAGGAVLSILDEMENVFVWEHLQSYEGQSRGAWLGMNFNPKGGTLVWQDNTAVNYSNWGPPGLGPSMLSHNSCYWIQSNSGLWRPGACTNITMGVVCKLPRAEQSSFSPSALPENPAALVVVLMAVLLLLALLTAALILYRRRQSIERGAFEGARYSRSSSSPTEATEKNILVSDMEMNEQQE
# Key:
# Experiment in all cases: glycan array binding signal (z-score within array); higher = stronger binding
# Conditions in all cases: glycan notation: IUPAC condensed, linker removed
# [1] = target: Neu5Ac(a2-3)Gal(b1-3)GalNAc(b1-4)[Neu5Ac(a2-8)Neu5Ac(a2-3)]Gal(b1-4)Glc
# Outline: (§1)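 Glycan array binding is given as a within-array Z-score, which can be read as non-binding when negative. The arrays, 3228 of them, came from the Consortium for Functional Glycomics database and were retained only where the protein sequence was available. Z-scores were averaged across arrays of the same protein sequence at different concentrations or buffers and across linkers.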
# [2] = target: Neu5Ac(a2-3)Gal(b1-3)GalNAc6S
# Outline: as §1
# [3] = target: Neu5Ac(a2-3)Gal(b1-3)GlcNAc
# Outline: as §1
# [4] = target: Neu5Ac(a2-3)Gal(b1-3)GlcNAc(b1-2)Man
# Outline: as §1
# [5] = target: Neu5Ac(a2-3)Gal(b1-3)GlcNAc(b1-2)Man(a1-3)[GlcNAc(b1-4)][Neu5Ac(a2-3)Gal(b1-3)GlcNAc(b1-2)Man(a1-6)]Man(b1-4)GlcNAc(b1-4)GlcNAc
# Outline: as §1
# [6] = target: Neu5Ac(a2-3)Gal(b1-3)GlcNAc(b1-2)Man(a1-3)[Neu5Ac(a2-3)Gal(b1-3)GlcNAc(b1-2)Man(a1-6)]Man(b1-4)GlcNAc(b1-4)GlcNAc
# Outline: as §1
# [7] = target: Neu5Ac(a2-3)Gal(b1-3)GlcNAc(b1-2)[Neu5Ac(a2-3)Gal(b1-3)GlcNAc(b1-4)]Man(a1-6)[Neu5Ac(a2-3)Gal(b1-3)GlcNAc(b1-2)Man(a1-3)]Man(b1-4)GlcNAc(b1-4)GlcNAc
# Outline: as §1
# [8] = target: Neu5Ac(a2-3)Gal(b1-3)GlcNAc(b1-3)Gal(b1-3)GlcNAc
# Outline: as §1
# [9] = target: Neu5Ac(a2-3)Gal(b1-3)GlcNAc(b1-3)Gal(b1-4)GlcNAc
# Outline: as §1
# [10] = target: Neu5Ac(a2-3)Gal(b1-3)GlcNAc(b1-3)GalNAc
# Outline: as §1
# [11] = target: Neu5Ac(a2-3)Gal(b1-3)GlcNAc(b1-6)GalNAc
# Outline: as §1
# [12] = target: Neu5Ac(a2-3)Gal(b1-3)GlcNAc6S
# Outline: as §1
# [13] = target: Neu5Ac(a2-3)Gal(b1-3)[Fuc(a1-4)]GlcNAc
# Outline: as §1
# [14] = target: Neu5Ac(a2-3)Gal(b1-3)[Fuc(a1-4)]GlcNAc(b1-3)Gal(b1-3)[Fuc(a1-4)]GlcNAc
# Outline: as §1
# [15] = target: Neu5Ac(a2-3)Gal(b1-3)[Fuc(a1-4)]GlcNAc(b1-3)Gal(b1-4)[Fuc(a1-3)]GlcNAc
# Outline: as §1
# [16] = target: Neu5Ac(a2-3)Gal(b1-3)[GlcNAc(b1-6)]GalNAc
# Outline: as §1
# [17] = target: Neu5Ac(a2-3)Gal(b1-3)[Neu5Ac(a2-3)Gal(b1-4)]GlcNAc
# Outline: as §1
# [18] = target: Neu5Ac(a2-3)Gal(b1-3)[Neu5Ac(a2-6)]GalNAc
# Outline: as §1
# [19] = target: Neu5Ac(a2-3)Gal(b1-3)[Neu5Ac(a2-6)]GlcNAc(b1-3)[Fuc(a1-3)[Gal(b1-4)]GlcNAc(b1-6)]Gal(b1-4)Glc
# Outline: as §1
# [20] = target: Neu5Ac(a2-3)Gal(b1-3)]Neu5Ac(a2-3)Gal(b1-4)]GlcNAc
# Outline: as §1
# [21] = target: Neu5Ac(a2-3)Gal(b1-4)Glc
# Outline: as §1
# [22] = target: Neu5Ac(a2-3)Gal(b1-4)GlcNAc
# Outline: as §1
binder,measurement,setting,value
B1,glycan array binding signal (z-score),[1],-1.04
same,glycan array binding signal (z-score),[2],0.081
same,glycan array binding signal (z-score),[3],0.541
same,glycan array binding signal (z-score),[4],-2.55
same,glycan array binding signal (z-score),[5],0.536
same,glycan array binding signal (z-score),[6],0.646
same,glycan array binding signal (z-score),[7],-0.652
same,glycan array binding signal (z-score),[8],-2.73
same,glycan array binding signal (z-score),[9],0.579
same,glycan array binding signal (z-score),[10],-0.015
same,glycan array binding signal (z-score),[11],0.64
same,glycan array binding signal (z-score),[12],-0.46
same,glycan array binding signal (z-score),[13],0.151
same,glycan array binding signal (z-score),[14],-1.25
same,glycan array binding signal (z-score),[15],0.222
same,glycan array binding signal (z-score),[16],-0.439
same,glycan array binding signal (z-score),[17],-0.174
same,glycan array binding signal (z-score),[18],-0.517
same,glycan array binding signal (z-score),[19],-0.16
same,glycan array binding signal (z-score),[20],-0.234
same,glycan array binding signal (z-score),[21],0.11
same,glycan array binding signal (z-score),[22],-0.314

# A second format for some results above.
binder | measurement | setting | value
B1 | glycan array binding signal (z-score) | [13] | 0.151
same | glycan array binding signal (z-score) | [15] | 0.222
